Test results reported in the supplement of paper PMC8728848.
This is one part of the list.

Legend:
Assay in all cases: glycan array binding signal (z-score within array); higher = stronger binding
Settings in all cases: glycan notation: IUPAC condensed, linker removed
[1] = target: Fuc(a1-2)[GalNAc(b1-3)]Gal
Procedure, shortened: (§1)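 Glycan array data were curated from 3228 arrays in the Consortium for Functional Glycomics database and kept only where the protein sequence was available. Glycan names were converted to IUPAC-condensed notation, and columns mapping to the same glycan were averaged. The binding signal is a within-array Z-score, averaged across arrays of the same protein sequence at different concentrations or buffers and across linkers. Negative Z-scores can be read as non-binding.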

Fuc(a1-3)GlcNAc = target: Fuc(a1-3)GlcNAc
Procedure, shortened: as §1

[2] = target: Fuc(a1-3)[Gal(b1-4)]Glc6S
Procedure, shortened: as §1

[3] = target: Fuc(a1-3)[Gal(b1-4)]GlcNAc
Procedure, shortened: as §1

[4] = target: Fuc(a1-3)[Gal(b1-4)]GlcNAc(b1-2)Man
Procedure, shortened: as §1

[5] = target: Fuc(a1-3)[Gal(b1-4)]GlcNAc(b1-2)Man(a1-3)[Fuc(a1-3)[Gal(b1-4)]GlcNAc(b1-2)Man(a1-6)]Man(b1-4)GlcNAc(b1-4)GlcNAc
Procedure, shortened: as §1

[6] = target: Fuc(a1-3)[Gal(b1-4)]GlcNAc(b1-2)Man(a1-3)[Fuc(a1-3)[Gal(b1-4)]GlcNAc(b1-2)Man(a1-6)]Man(b1-4)GlcNAc(b1-4)[Fuc(a1-6)]GlcNAc
Procedure, shortened: as §1

[7] = target: Fuc(a1-3)[Gal(b1-4)]GlcNAc(b1-3)Gal(b1-3)[Fuc(a1-4)]GlcNAc
Procedure, shortened: as §1

[8] = target: Fuc(a1-3)[Gal(b1-4)]GlcNAc(b1-3)Gal(b1-4)[Fuc(a1-3)]GlcNAc
Procedure, shortened: as §1

[9] = target: Fuc(a1-3)[Gal(b1-4)]GlcNAc(b1-3)Gal(b1-4)[Fuc(a1-3)]GlcNAc(b1-3)Gal(b1-4)[Fuc(a1-3)]GlcNAc
Procedure, shortened: as §1

[10] = target: Fuc(a1-3)[Gal(b1-4)]GlcNAc(b1-3)GalNAc
Procedure, shortened: as §1

[11] = target: Fuc(a1-3)[Gal(b1-4)]GlcNAc(b1-6)GalNAc
Procedure, shortened: as §1

[12] = target: Fuc(a1-3)[Gal(b1-4)]GlcNAc(b1-6)[Gal(b1-3)GlcNAc(b1-3)]Gal(b1-4)Glc
Procedure, shortened: as §1

[13] = target: Fuc(a1-3)[Gal(b1-4)]GlcNAc6S
Procedure, shortened: as §1

[14] = target: Fuc(a1-3)[Gal3S(b1-4)]Glc
Procedure, shortened: as §1

[15] = target: Fuc(a1-3)[Gal3S(b1-4)]GlcNAc
Procedure, shortened: as §1

[16] = target: Fuc(a1-3)[Gal3S(b1-4)]GlcNAc6S
Procedure, shortened: as §1

[17] = target: Fuc(a1-3)[GalNAc(b1-4)]GlcNAc
Procedure, shortened: as §1

[18] = target: Fuc(a1-3)[GalNAc(b1-4)]GlcNAc6S
Procedure, shortened: as §1

Fuc(a1-4)GlcNAc = target: Fuc(a1-4)GlcNAc
Procedure, shortened: as §1

Fuc(b1-3)GlcNAc = target: Fuc(b1-3)GlcNAc
Procedure, shortened: as §1

Gal(a1-2)Gal = target: Gal(a1-2)Gal
Procedure, shortened: as §1

Gal(a1-3)Gal = target: Gal(a1-3)Gal
Procedure, shortened: as §1

Gal(a1-3)Gal(b1-3)GlcNAc = target: Gal(a1-3)Gal(b1-3)GlcNAc
Procedure, shortened: as §1

[19] = target: Gal(a1-3)Gal(b1-3)GlcNAc(b1-2)Man
Procedure, shortened: as §1

[20] = target: Gal(a1-3)Gal(b1-3)GlcNAc(b1-2)Man(a1-3)[Gal(a1-3)Gal(b1-3)GlcNAc(b1-2)Man(a1-6)]Man(b1-4)GlcNAc(b1-4)GlcNAc
Procedure, shortened: as §1

[21] = target: Gal(a1-3)Gal(b1-3)GlcNAc(b1-3)GalNAc
Procedure, shortened: as §1

[22] = target: Gal(a1-3)Gal(b1-3)GlcNAc(b1-6)GalNAc
Procedure, shortened: as §1

[23] = target: Gal(a1-3)Gal(b1-3)[Fuc(a1-4)]GlcNAc(b1-2)Man(a1-3)[Gal(a1-3)Gal(b1-3)[Fuc(a1-4)]GlcNAc(b1-2)Man(a1-6)]Man(b1-4)GlcNAc(b1-4)GlcNAc
Procedure, shortened: as §1

Gal(a1-3)Gal(b1-4)Glc = target: Gal(a1-3)Gal(b1-4)Glc
Procedure, shortened: as §1

Gal(a1-3)Gal(b1-4)GlcNAc = target: Gal(a1-3)Gal(b1-4)GlcNAc
Procedure, shortened: as §1

[24] = target: Gal(a1-3)Gal(b1-4)GlcNAc(b1-2)Man
Procedure, shortened: as §1

[25] = target: Gal(a1-3)Gal(b1-4)GlcNAc(b1-2)Man(a1-3)[Gal(a1-3)Gal(b1-4)GlcNAc(b1-2)Man(a1-6)]Man(b1-4)GlcNAc(b1-4)GlcNAc
Procedure, shortened: as §1

[26] = target: Gal(a1-3)Gal(b1-4)GlcNAc(b1-3)GalNAc
Procedure, shortened: as §1

[27] = target: Gal(a1-3)Gal(b1-4)GlcNAc(b1-6)GalNAc
Procedure, shortened: as §1

[28] = target: Gal(a1-3)Gal(b1-4)[Fuc(a1-3)]GlcNAc
Procedure, shortened: as §1

[29] = target: Gal(a1-3)Gal(b1-4)[Fuc(a1-3)]GlcNAc(b1-2)Man(a1-3)[Gal(a1-3)Gal(b1-4)[Fuc(a1-3)]GlcNAc(b1-2)Man(a1-6)]Man(b1-4)GlcNAc(b1-4)GlcNAc
Procedure, shortened: as §1

Gal(a1-3)GalNAc = target: Gal(a1-3)GalNAc
Procedure, shortened: as §1

[30] = target: Gal(a1-3)[Gal(a1-4)]Gal(b1-4)GlcNAc
Procedure, shortened: as §1

[31] = target: Gal(a1-4)Gal(b1-3)GlcNAc(b1-2)Man(a1-3)[Gal(a1-4)Gal(b1-3)GlcNAc(b1-2)Man(a1-6)]Man(b1-4)GlcNAc(b1-4)GlcNAc
Procedure, shortened: as §1

Gal(a1-4)Gal(b1-4)Glc = target: Gal(a1-4)Gal(b1-4)Glc
Procedure, shortened: as §1

Gal(a1-4)Gal(b1-4)GlcNAc = target: Gal(a1-4)Gal(b1-4)GlcNAc
Procedure, shortened: as §1

[32] = target: Gal(a1-4)Gal(b1-4)GlcNAc(b1-2)Man(a1-3)[Gal(a1-4)Gal(b1-4)GlcNAc(b1-2)Man(a1-6)]Man(b1-4)GlcNAc(b1-4)GlcNAc
Procedure, shortened: as §1

[33] = target: Gal(a1-4)Gal(b1-4)GlcNAc(b1-3)Gal(b1-4)Glc
Procedure, shortened: as §1

Gal(a1-4)GlcNAc = target: Gal(a1-4)GlcNAc
Procedure, shortened: as §1

B1: EfCBM33A (Enterococcus faecalis), Q838S1 (protein)
chain: MKKSLLTIVLAFSFVLGGAALAPTVSEAHGYVASPGSRAFFGSSAGGNLNTNVGRAQWEPQSIEAPKNTFITGKLASAGVSGFEPLDEQTATRWHKTNITTGPLDITWNLTAQHRTASWDYYITKNGWNPNQPLDIKNFDKIASIDGKQEVPNKVVKQTINIPTDRKGYHVIYAVWGIGDTVNAFYQAIDVNIQ
glycan array binding signal (z-score) [1]: 0.576 | glycan array binding signal (z-score) (Fuc(a1-3)GlcNAc): -0.585 | glycan array binding signal (z-score) [2]: -0.134 | glycan array binding signal (z-score) [3]: -0.476 | glycan array binding signal (z-score) [4]: -0.178 | glycan array binding signal (z-score) [5]: -1.5 | glycan array binding signal (z-score) [6]: -0.453 | glycan array binding signal (z-score) [7]: 0.114 | glycan array binding signal (z-score) [8]: 0.008 | glycan array binding signal (z-score) [9]: -0.207 | glycan array binding signal (z-score) [10]: 1.33 | glycan array binding signal (z-score) [11]: 0.409 | glycan array binding signal (z-score) [12]: -0.984 | glycan array binding signal (z-score) [13]: 0.882 | glycan array binding signal (z-score) [14]: 0.431 | glycan array binding signal (z-score) [15]: -0.046 | glycan array binding signal (z-score) [16]: -0.44 | glycan array binding signal (z-score) [17]: 0.464 | glycan array binding signal (z-score) [18]: -0.82 | glycan array binding signal (z-score) (Fuc(a1-4)GlcNAc): 0.25 | glycan array binding signal (z-score) (Fuc(b1-3)GlcNAc): -1.52 | glycan array binding signal (z-score) (Gal(a1-2)Gal): -1.64 | glycan array binding signal (z-score) (Gal(a1-3)Gal): 0.733 | glycan array binding signal (z-score) (Gal(a1-3)Gal(b1-3)GlcNAc): -0.812 | glycan array binding signal (z-score) [19]: 1.41 | glycan array binding signal (z-score) [20]: -0.787 | glycan array binding signal (z-score) [21]: -0.232 | glycan array binding signal (z-score) [22]: 0.171 | glycan array binding signal (z-score) [23]: 1.05 | glycan array binding signal (z-score) (Gal(a1-3)Gal(b1-4)Glc): -0.551 | glycan array binding signal (z-score) (Gal(a1-3)Gal(b1-4)GlcNAc): -1.18 | glycan array binding signal (z-score) [24]: -0.629 | glycan array binding signal (z-score) [25]: 0.252 | glycan array binding signal (z-score) [26]: 0.455 | glycan array binding signal (z-score) [27]: -1.51 | glycan array binding signal (z-score) [28]: -0.905 | glycan array binding signal (z-score) [29]: -0.476 | glycan array binding signal (z-score) (Gal(a1-3)GalNAc): -0.651 | glycan array binding signal (z-score) [30]: 0.98 | glycan array binding signal (z-score) [31]: 1.56 | glycan array binding signal (z-score) (Gal(a1-4)Gal(b1-4)Glc): -0.647 | glycan array binding signal (z-score) (Gal(a1-4)Gal(b1-4)GlcNAc): -0.033 | glycan array binding signal (z-score) [32]: 0.852 | glycan array binding signal (z-score) [33]: -0.03 | glycan array binding signal (z-score) (Gal(a1-4)GlcNAc): 0.566
